This is an account of results in paper PMC6168254.

No constants are given. Whether binding was seen depends on the method and setting. Binding seen in cells or lysates may run through a third protein. Some entries that bind do so weakly or less than the wild type. Sequences can lack the tags named with a protein.

Test [1] concerns the target T1, GFP-Subito (full-length Subito, the Drosophila MKlp2, a kinesin-6) (Drosophila melanogaster) (UniProt Q9V877).
T1 sequence: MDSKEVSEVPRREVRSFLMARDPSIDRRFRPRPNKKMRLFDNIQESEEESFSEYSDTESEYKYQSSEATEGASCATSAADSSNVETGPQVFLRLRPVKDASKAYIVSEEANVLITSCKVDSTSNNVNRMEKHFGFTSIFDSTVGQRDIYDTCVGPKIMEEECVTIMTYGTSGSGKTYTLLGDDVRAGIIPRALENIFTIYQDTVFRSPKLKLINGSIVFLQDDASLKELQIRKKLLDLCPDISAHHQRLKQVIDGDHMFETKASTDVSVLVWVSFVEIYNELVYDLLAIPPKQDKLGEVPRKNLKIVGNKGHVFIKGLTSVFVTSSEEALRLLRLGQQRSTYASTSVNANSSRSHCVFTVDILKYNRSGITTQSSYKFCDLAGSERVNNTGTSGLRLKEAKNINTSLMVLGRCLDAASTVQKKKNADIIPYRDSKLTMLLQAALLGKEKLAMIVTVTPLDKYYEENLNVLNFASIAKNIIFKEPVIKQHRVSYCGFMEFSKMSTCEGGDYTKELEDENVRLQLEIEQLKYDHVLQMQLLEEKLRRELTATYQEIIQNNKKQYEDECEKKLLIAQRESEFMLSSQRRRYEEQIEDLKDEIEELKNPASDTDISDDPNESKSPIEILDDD
Briefly: co-IP; GFP-tagged protein immunoprecipitated with anti-GFP magnetic beads from Drosophila ovary lysate, in the absence of phosphatase inhibitors, 2 h at 4°C; immunoblots for Grip71 and γ-tubulin.

The target of test [2] is T1, GFP-Subito (full-length Subito, the Drosophila MKlp2, a kinesin-6) (Drosophila melanogaster). Briefly: co-IP; GFP-tagged protein immunoprecipitated with anti-GFP magnetic beads from lysate of ovaries co-expressing control (white) shRNA, in the presence of phosphatase inhibitors (1 µM okadaic acid, 10 mM p-nitrophenyl phosphate), 20 mM Tris-HCl pH 7.5, 50 mM NaCl, 0.5% Triton X-100, 1 h at 4°C; immunoblots for Grip71 and γ-tubulin.

Test [3] concerns the target T2, GFP-SubitoΔN (Subito lacking the N-terminal 89 residues) (Drosophila melanogaster) (UniProt Q9V877).
T2 sequence: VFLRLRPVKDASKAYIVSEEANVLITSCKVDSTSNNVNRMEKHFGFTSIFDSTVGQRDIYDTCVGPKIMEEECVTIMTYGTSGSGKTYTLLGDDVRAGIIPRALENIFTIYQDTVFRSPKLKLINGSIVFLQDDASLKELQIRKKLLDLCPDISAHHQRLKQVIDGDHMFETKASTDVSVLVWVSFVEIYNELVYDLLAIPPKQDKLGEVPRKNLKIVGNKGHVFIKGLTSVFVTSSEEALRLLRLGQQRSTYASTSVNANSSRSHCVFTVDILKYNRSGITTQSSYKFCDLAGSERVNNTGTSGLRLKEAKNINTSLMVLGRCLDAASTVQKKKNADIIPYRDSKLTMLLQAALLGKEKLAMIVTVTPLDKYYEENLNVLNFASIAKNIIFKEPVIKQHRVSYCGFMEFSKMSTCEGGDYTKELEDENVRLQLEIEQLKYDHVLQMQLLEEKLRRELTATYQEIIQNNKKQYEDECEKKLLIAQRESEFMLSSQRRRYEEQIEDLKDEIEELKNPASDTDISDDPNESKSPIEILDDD
Described as above.

B1: Grip71/NEDD1, a component of the γ-tubulin ring complex (protein, UniProt Q9VJ57 1-646)
chain: MHVISTSKKTVLSDFADLETKSEYVHQNAEPTDFQFNGQRRVFVEVDKMAGLAVMRIKEKDGKTPEIQRVRKLTIDNAFCVACAKQSLEEIAVGQSGCVKLYNFRTAQLIHRFPADPQRSTVLYMDYNNTDEYIAAVRDGGDISILGTKTKQKTNTFTIDGDSTLVRFHPSKRFHLSIASYKGAVTVYDVQGMRKIFHASEAHSAPCRDISMCTSQPALLVSVGYDCKINIFDIRRNRAQASTDRLTYSHPLSTVALSECGTYLCAGNLKGELIAYDMRSTKAPLAVRSVHDAAVTRVAFVPVPSGDNQQNGSLNSSENATGLATEAPRVERAPSDELRKSIAANLLSTQNQLTSLGYGVSTPTIVRRDSFCEFLDAQGPRAVDRMSTRLGASYRDSFDWETLNRKPQPYETANRQSLCPPVASGPSSVDNSVNSSTTESLQQTLSGPLKDRSNISGDGKLMKIAETDELCEEQSANISVASSTGGGSDKENPPPVDAEMKRRLRLLSASRNSTPHHANITPQSSNPLLKPQQLLAKSSSGLSAQMDADWRKEFSELRDFVDQRCEKVERELEYVTFSNQRLLANKMTNYMDQQVENTREIRDALALLLQGDSFMREFSRLQNENEMLKAKLKFYQEQEQTESCGE
For B1, the binding result in test [1] is reported as “binds”; in test [2] it was “binds weakly”; in test [3] it was “binds”.
